No constants are given. Whether binding was seen depends on the method and setting. Binding can be weak; no strength is given.
What was measured:
[1] = target: marmoset GM-CSF (marmoset); experiment: Biacore
[2] = target: rhesus GM-CSF (rhesus); experiment: Biacore
[3] = target: rhesus GM-CSF (rhesus); experiment: Western blot

Measured: binding

B1: EV1019 (antibody, human IgG1, lambda, V domains shown)
VH: QAQLVESGGGVVKPGGSLRLSCISSKFTFSSHAMHWVRQAPGKGLEWVAVIWHDGSKKYYADSVKGRFSVSRDNSKNTLFLQMDSLRAEDTAVYFCGKEWVGGTCDSWGQGTLVIVSS
VL: QPALTQEASVSGTVGQTVTLLCSGNSSNIGSYAVGWYQQISRGAPKIVVFGKSPASGIPDRFSGSKSGTTASLLVSGLQPEDEADYYCSTWDSRLSAVLFGGGTKLTVLR
binds: all assays above
